Reference: PubChem BioAssay AID2685 (National Center for Advancing Translational Sciences (NCATS), 2010)
This is one part of the list. Shown are side measurements of this screen, not its main read-out; they come without a call. Compounds called inactive in the main read-out are mostly missing here. Words in brackets tell the shape of the fitted curve; partial curves, single points and poor fits give uncertain potencies.

Experiment: qHTS Assay for Lipid Storage Modulators in Drosophila S3 Cells;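 on cell number change: cells counted by Cell Tracker Red CMTPX staining in the red channel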
Settings: BODIPY lipid droplet fluorescence, 18-24 h; for cell number change: measured here: cell count max response, cells fed with added oleic acid
Outline: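 Laser-scanning cytometry quantifies lipid droplet accumulation (500–530 nm total intensity; droplet/cell object ratio) in oleic acid-fed (400 uM added) Drosophila S3 cells treated with a concentration series. 20 uM Triacsin C defined 100% inhibition.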

[1] = measured here: cell number channel AC50, cells fed with added oleic acid
[2] = measured here: lipid fluorescence (Fed channel) AC50, cells fed with added oleic acid

Compound	cell number change	AC50 [1]	AC50 [2]
CCOC(=O)N1CCN(S(=O)(=O)c2ccc(C(=O)Nc3nc4ccc(F)cc4s3)cc2)CC1	-16%		
O=C(CCCCCBr)N1CCC(CC2CC(c3ccc(Cl)cc3)=NO2)(C(=O)NCC2CCCCC2)CC1 (centres undefined)	19.1%	0.231 µM [rising, full curve, poor fit]	
CCOc1ccc(-c2nc(C#N)c(N3CCN(Cc4ccccc4)CC3)o2)cc1	-15.6%		0.00461 µM [rising, full curve, poor fit]
O=C(COC(=O)CCSc1ccccc1)NCc1ccc(F)cc1	-61.8%	2.91 µM [falling, full curve]	29.1 µM [falling, single point]
Cc1cccn2c(=O)c(/C=C3\SC(=S)N(CC(C)C)C3=O)c(NCCCOC(C)C)nc12	-1.39%		
COc1ccccc1NC(=O)c1cc(S(=O)(=O)N2CCC3(CC2)OCCO3)ccc1F	7.68%	0.00517 µM [rising, full curve, poor fit]	5.17 µM [rising, full curve, poor fit]
O=C1CC(c2ccccc2)CC(=O)C1Sc1ccc(Cl)cc1 (centres undefined)	4.26%		18.4 µM [rising, partial curve, poor fit]
CC(C)N(C(=O)CSc1ncnc2sc(-c3ccccc3)cc12)C(C)C	8.4%		0.731 µM [rising, single point]
Cn1c(=O)c2c(ncn2CC(=O)OCC(=O)Nc2ccc(Cl)cc2Cl)n(C)c1=O	5.04%	2.06 µM [falling, partial curve, poor fit]	
CCCN1C2CCCC1CC(NC(=O)c1ccccc1OCC)C2 (centres undefined)	30.1%	18.4 µM [rising, single point]	
Cc1nc(NC(=O)C2CC3CCCC(C2)C3=O)sc1C (centres undefined)		4.11 µM [rising, single point]	
O=C(Nc1ccccc1)Nc1nnc(Cc2ccc(F)cc2)s1			0.116 µM [falling, full curve]
O=C(COC(=O)c1cc(S(=O)(=O)N2CCOCC2)ccc1Cl)NC1CC1	11.2%		0.731 µM [rising, partial curve, poor fit]
Cc1cc(OCCN2CCN(S(=O)(=O)c3ccccc3F)CC2)ccc1C(C)C	-46.4%	16.4 µM [falling, partial curve]	0.0731 µM [falling, full curve]
Cc1cc(N2CCOCC2)n2nc(C)c(-c3ccc(Cl)cc3)c2n1	-2.13%	0.82 µM [falling, single point]	
CCc1ccc(S(=O)(=O)NC(CC(=O)O)c2ccccc2)cc1 (centres undefined)	-6.24%		1.3 µM [rising, partial curve]
O=c1[nH][nH]cc1C=Nc1ccccc1Cl	-16.7%	0.146 µM [falling, full curve, poor fit]	
C=CCOc1ccc(C(=O)CC)cc1OC		4.61 µM [rising, single point]	10.3 µM [falling, single point]
O=C(CSc1nnc(-c2cccs2)n1-c1cccc(Cl)c1)c1cccc2c1OCCO2		2.06 µM [rising, partial curve]	2.31 µM [rising, partial curve]
COc1cccc(NC(=O)N2CCCC2C(=O)NC2CC2)c1 (centres undefined)	-3.39%		
Cc1csc2nc(O)c(C(=O)NCCN3CCOCC3)c(=O)n12	-10.4%		

Compound	cell number change	AC50 [1]	AC50 [2]
COc1cc(OC)c(NS(=O)(=O)c2cc3[nH]c(=O)c(=O)[nH]c3cc2C)cc1Cl	15.3%		6.51 µM [rising, single point]
Cc1nc2ncnn2c(C)c1Cc1c(Cl)cccc1Cl	4.98%		
CC(C(=O)O)c1ccc(-c2ccccc2)c(F)c1 (centres undefined)	-15.7%		0.00461 µM [falling, full curve, poor fit]
N#CC1(C#N)CC(C=O)=C(N)C1(C#N)CC(=O)c1ccc(F)cc1 (centres undefined)	0.424%		6.51 µM [falling, single point]
O=C1CC(c2cccc(F)c2)c2c(c3ccccc3[nH]c2=O)O1 (centres undefined)	-112%		
CCCOC(c1ccccc1)(c1ccccc1)C(Oc1nc(C)cc(C)n1)C(=O)O (centres undefined)			4.11 µM [rising, full curve]
COc1ccc(C2CCCN2C(=S)Nc2ccc(C)c(C)c2)cc1OC (centres undefined)	23.4%		0.0082 µM [rising, full curve, poor fit]
CC(=O)Oc1ccccc1C(=O)N(C1CCCCC1)C1CCCCC1	-30.7%	16.4 µM [falling, single point]	
COc1ccccc1C(=O)NC(=O)COC(=O)/C(=C/c1ccccc1)NC(C)=O	-29%		16.4 µM [falling, single point]
COc1ccc(C2CC(c3ccccc3)=NN2C(=O)COC(=O)c2cc(S(=O)(=O)N3CCOCC3)ccc2F)cc1 (centres undefined)	9.97%		16.4 µM [falling, single point]
Cc1cc2nc3c(nc2cc1C)C1(C(=O)O)CCC3(C)C1(C)C (centres undefined)	-78.2%	16.4 µM [falling, partial curve]	20.6 µM [falling, single point]
COc1ccc(S(=O)(=O)N(C)c2ccc(C(=O)NC3CCCC3)cc2)cc1	-21.1%		25.9 µM [falling, partial curve, poor fit]
CSc1ccc(/C=C(/NC(=O)c2ccccc2)C(=O)NCCCn2ccnc2)cc1	22.3%		
O=C(NNC(=O)c1cc(Cl)nc2ccccc12)c1ccccc1F		6.51 µM [rising, single point]	
O=S(=O)(c1ccc(-c2ccon2)s1)N1CCN(CCN2CCOCC2)CC1	-11.9%		0.0291 µM [falling, full curve, poor fit]
COc1ccccc1N1CCN(C(CNS(=O)(=O)c2cc(F)ccc2F)c2cccnc2)CC1 (centres undefined)	35.4%	0.146 µM [rising, full curve, poor fit]	
N#CCCn1nc(-c2ccccc2)cc1Nc1ccccc1NC(=O)c1cccs1	-21.1%		0.58 µM [rising, partial curve]
COc1ccc(C(=O)Oc2c(OC)cc(C(=S)N3CCOCC3)cc2OC)cc1OC	-1.46%		
COc1ccc(-c2nnc(SCC(=O)NC3CCCCC3)o2)cc1	16.7%		29.1 µM [falling, partial curve]
N#CCCN1CCN(S(=O)(=O)c2ccc(S(=O)(=O)N3CCCCCC3)cc2)CC1	-23.9%		3.26 µM [falling, full curve, poor fit]
CC1CN(Cc2ccccn2)CCC1=O (centres undefined)	-45.7%	3.66 µM [falling, full curve, poor fit]	0.058 µM [falling, full curve]

Compound	cell number change	AC50 [1]	AC50 [2]
CCN(CC(=O)Nc1ccccc1C(F)(F)F)C(=O)c1ccc2c(=O)n3c(nc2c1)CCC3	-12.2%		0.082 µM [falling, partial curve, poor fit]
COc1ccc(N2CCN(C(=O)CNC(=O)c3ccc(Br)o3)CC2)cc1	-2.31%		0.00461 µM [falling, full curve, poor fit]
O=C(NCc1ccco1)C(C(=O)c1ccccc1)n1ccccc1=O (centres undefined)	4.63%		
COc1ccc(NC(=O)c2cc(-c3ccc(OC)c(OC)c3)nc3ccccc23)c(OC)c1	13.7%		0.651 µM [falling, single point]
O=C1CN(S(=O)(=O)c2ccc(Br)cc2)c2ccccc2N1	16.2%		0.58 µM [rising, single point]
CC(=O)Nc1ccc2nc(-c3ccco3)[nH]c2c1	-51.6%		
Cc1cc(-c2n[nH]c(=S)n2/N=C/C(Cl)=C/c2ccccc2)n[nH]1	-54.3%	13 µM [falling, partial curve]	25.9 µM [falling, partial curve, poor fit]
CCOC(=O)CN1NC2(CCC(C)CC2)NC1=S (centres undefined)			6.51 µM [falling, single point]
N#CC1=C(N)Oc2n[nH]c(-c3cccs3)c2C1c1ccsc1 (centres undefined)	-11.3%		
COc1ccc(CNC(=O)C(C)N2C(=O)NC3(CCCCCCC3)C2=O)cc1 (centres undefined)	-42.1%	0.92 µM [falling, full curve]	6.51 µM [falling, partial curve]
Cc1ccc(NC(=O)CCN2C(=O)C3CC=CCC3C2=O)cc1Cl (centres undefined)	-37.4%	32.6 µM [falling, single point]	29.1 µM [falling, single point]
CC(C)c1ccc(NC2CCCN(C(=O)c3ccco3)C2)cc1 (centres undefined)	-14.2%		18.4 µM [rising, partial curve]
C=CCNC(=O)COc1ccc(Br)cc1Cl	21%	0.92 µM [rising, single point]	
COc1ccc(/C=N/n2c(SC)nnc2-c2ccccc2)cc1C	64.1%	20.6 µM [rising, partial curve]	1.3 µM [rising, full curve]
CCCc1ccc(-c2cc(C(=O)NCCc3ccc(S(N)(=O)=O)cc3)c3ccccc3n2)cc1	-4.62%		
O=C1Nc2ccccc2C1(O)c1ccccc1 (centres undefined)	43.5%		
COc1ccccc1NC(=O)CS(=O)(=O)c1cccc2nsnc12	-27.8%		0.0259 µM [falling, full curve, poor fit]
O=C(CN1CCN(c2nc(-c3ccc(Cl)cc3)cs2)CC1)NCc1ccco1	39.2%	29.1 µM [rising, single point]	18.4 µM [rising, single point]
O=C(NC1CCCC1)c1cc(-c2ccccc2Cl)on1	16.8%		0.206 µM [rising, single point]

3 entries picked at random from the list so far, as already listed:
Compound	cell number change	AC50 [1]	AC50 [2]
CC(C)c1ccc(NC2CCCN(C(=O)c3ccco3)C2)cc1 (centres undefined)	-14.2%		18.4 µM [rising, partial curve]
COc1ccc(N2CCN(C(=O)CNC(=O)c3ccc(Br)o3)CC2)cc1	-2.31%		0.00461 µM [falling, full curve, poor fit]
COc1ccccc1NC(=O)CS(=O)(=O)c1cccc2nsnc12	-27.8%		0.0259 µM [falling, full curve, poor fit]
